Results from patent publication US20250120971A1, “NOVEL DRUG TREATMENT OF COGNITIVE IMPAIRMENTS ASSOCIATED WITH SCHIZOPHRENIA” (FLORIDA ATLANTIC UNIVERSITY BOARD OF TRUSTEES, priority 2021, published 2025).

How the values were obtained:
[1] = tested on: KET mouse model of psychosis; assay: Object recognition memory task after intrahippocampal (CA1) microinfusion; format: in vivo; details: KET mice; CyPPA 1 μg/μl, 0.35 μl/side bilateral intra-CA1
[2] = tested on: KET mouse model of psychosis or schizophrenia-like behavior; assay: Object recognition memory task after systemic (IP) SK channel activator; format: in vivo, mouse (male C57BL/6J); details: SAL and KET mice; CyPPA 15.0 mg/kg IP; exploration time, distance traveled, velocity
Description: SK Drug Administration. To test the effect of the SK2 specific activator, CyPPA on long-term memory for objects, two KET groups and two SAL groups of male C57BL/6J mice were randomly assigned to receive either VEH or CyPPA (15.0 mg/kg) IP 30 min prior to the sample session of an object recognition memory task. Separate groups received CyPPA (7.5 mg/kg) IP or VEH 30 min prior to the sample session.
Arena Habituation. Mice were habituated to the arena prior to testing recognition memory. Thirty minutes prior to each arena habituation (AH) session, each mouse was restrained gently and momentarily, given a mock IP injection with a 26-gauge needle, and then placed into an empty polycarbonate cage. […] Afterwards, each mouse was returned to the polycarbonate cage and then returned to its home cage. Activity was recorded and automatically scored using Noldus Ethovision XT (version 7.0). Distance traveled was defined as the sum of recorded movement of the center point of the mouse in cm over the duration of the trial. […]
Sample Session. […] Sample session behavior was video tracked via Ethovision XT and recordings were analyzed off-line to determine object exploration times for each mouse. […]
Statistical Analysis. Object exploration was determined for each mouse based on the manual scoring of behavior from the recorded video files of the sample and test sessions. […]

Question: How did the “total object exploration time, sample session (Mdn)” value [1] turn out when Cc1cc(NC2CCCCC2)nc(-n2nc(C)cc2C)n1 [CyPPA] was run?
Answer: 62.190 s

Question: What about the “attention and motivation to explore the objects during the sample session” value [2] of the same compound?
Answer: not affected
